Measurements taken from PubChem BioAssay AID504444 (National Center for Advancing Translational Sciences (NCATS), 2011).
About 7,500 (2.1%) of roughly 360,000 compounds were called active. Inconclusive results, whose numbers are uncertain, are shown with a selection of clear calls. Calls follow the shape of the dose curve; as a rule, active = well fitted inhibition curve with a large enough effect; inconclusive = small, poorly fitted or top-dose-only effect, or effect the other way; inactive = flat fitted curve, though single readings scatter. A potency beside an inconclusive call is a rough fit, not a confirmed value.

test: Nrf2 qHTS screen for inhibitors; conditions: A549 ARE-Fluc reporter, luciferase luminescence, 18-24 h; activity change, negative = inhibition: at 46 µM (top of the series); also: nearly all actives have a fitted effect of over 60% in size
Summary of the method: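 Two sequential reads on A549 ARE_Fluc cells exposed to compound for 18-24 h: a CellTiter-Fluor fluorescence read for viability, then a luciferase luminescence read for Nrf2/ARE activity.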
% is scaled to controls: 0 for no effect and ±100 for the full control effect; potency is read from the fitted curve at half-maximal effect.

Row | Compound | Potency | activity change, negative = inhibition
1 | CC(=O)COC(=O)c1cc(-c2ccc(C)cc2)nc2ccccc12 | inconclusive: 0.651 µM [falling, full curve] | –
2 | CCOC(=O)C1(Cc2ccc(Cl)cc2)CCN(C(=O)c2sc(C)nc2C)CC1 | inconclusive: 18.4 µM [falling, single point] | –
3 | CCN1C(=O)/C(=C2/Sc3ccccc3N2CC)S/C1=N\c1ncn[nH]1 | inconclusive: 16.4 µM [falling, single point] | –
4 | CCCn1cc(S(=O)(=O)c2ccccc2)c(=O)c2cc(CC)ccc21 | inconclusive: 3.26 µM [falling, full curve, poor fit] | –
5 | CCCCc1nc2cc(C(=O)N3CCCC(COC)C3)ccc2o1 (configuration not stated) | inconclusive: 4.11 µM [activator, full curve, poor fit] | –
6 | O=C(O)COc1ccc2c3c(c(=O)oc2c1)CCCC3 | – | inactive: 1.11%
7 | COc1cccc(C(=O)c2cn(CC(=O)Nc3cccc(C)c3C)c3nc(C)ccc3c2=O)c1 | inconclusive: 13 µM [activator, partial curve, poor fit] | –
8 | CN(C)Cc1c(O)ccc2c(=O)c(-c3ccccc3Cl)c(C(F)(F)F)oc12 | – | inactive: 4.47%
9 | CCC(C)NC(=O)Nc1ccc2c(c1)N(C)C(=O)c1ccccc1S2 (configuration not stated) | inconclusive: 25.9 µM [falling, partial curve, poor fit] | –
10 | CCC(C)NC(=O)c1oc2ccc(S(=O)(=O)N3CCC4(CC3)OCCO4)cc2c1C (configuration not stated) | inconclusive: 13 µM [falling, partial curve, poor fit] | –
11 | Cc1cccc(-c2nc(Cn3c(SCc4cccc(C(F)(F)F)c4)nc4ccncc43)c(C)o2)c1 | inconclusive: 29.1 µM [falling, single point] | –
12 | C(=N/Nc1nc(-c2ccccc2)cc(-c2ccccc2)n1)/c1cccnc1 | inconclusive: 25.9 µM [falling, single point] | –
13 | O=C(NNC(=O)c1c(O)c2ccccc2[nH]c1=O)c1ccccc1 | inconclusive: 25.9 µM [falling, single point] | –
14 | CC(C)(C)c1ccc(C2C3=C(CCCC3=O)NC3=C2C(=O)c2ccccc23)cc1 (configuration not stated) | inconclusive: 29.1 µM [falling, single point] | –
15 | Cc1oc(-c2nc3ccccc3n2C)cc1C(=O)c1ccccc1 | inconclusive: 0.651 µM [activator, partial curve] | –
16 | Cc1cccc(/C(N)=N/OC(=O)Cc2cccs2)c1 | inconclusive: 13 µM [activator, partial curve] | –
17 | Cc1cccc(C)c1NC(=O)CN(C)C(=O)C1CCN(c2ncnc3sc(C)c(C)c23)CC1 | inconclusive: 29.1 µM [falling, single point] | –
18 | O=C1CN(C(=O)CSc2nc3ccccc3c(=O)n2CC2CCCO2)c2ccccc2N1 (configuration not stated) | inconclusive: 29.1 µM [falling, single point] | –
19 | CC(=O)c1c(C)[nH]c(C(=O)Nc2cccc(S(=O)(=O)N(C)c3ccccc3)c2)c1C | inconclusive: 14.6 µM [falling, single point] | –

Row | Compound | Potency | activity change, negative = inhibition
20 | CCOC(=O)c1ccc(NC(=O)Cn2cc(C(=O)c3ccc(Cl)cc3)c(=O)c3ccc(C)nc32)cc1 | inconclusive: 10.3 µM [falling, partial curve, poor fit] | –
21 | O=C(CNC(=O)c1cc(=O)[nH]c2ccc(S(=O)(=O)N3CCOCC3)cc12)Nc1ccc(F)c(F)c1 | inconclusive: 29.1 µM [activator, single point] | –
22 | O=C(c1ccc(S(=O)(=O)Nc2ccccc2F)cc1)N1CCN(c2ccccn2)CC1 | inconclusive: 16.4 µM [falling, partial curve, poor fit] | –
23 | CN(Cc1nc(Cc2ccccc2F)no1)Cc1cccc2ncccc12 | active: 18.4 µM | –
24 | CCOc1cccc(C(=O)Nc2cccc(-c3nnc(-c4ccccc4)o3)c2)c1 | inconclusive: 0.0517 µM [falling, full curve, poor fit] | –
25 | CN(CCNC(=O)c1c[nH]c2c1ccc1ccccc12)CCNC(=O)c1c[nH]c2c1ccc1ccccc12 | inconclusive: 6.51 µM [activator, partial curve, poor fit] | –
26 | COc1cc(C(=O)NC(=S)Nc2ccccc2N2CCOCC2)cc(OC)c1OC | inconclusive: 18.4 µM [falling, single point] | –
27 | CN(Cc1ccc(C(C)(C)C)cc1)C(=O)C1CCN(C(=O)Nc2ccccc2)CC1 | active: 20.6 µM | –
28 | CCC(=O)Nc1nnc(S(=O)(=O)N2CCc3ccccc32)s1 | inconclusive: 9.2 µM [activator, partial curve] | –
29 | CCOc1ccccc1C(=O)NCC(=O)NCc1ccc(S(=O)(=O)N2CCOCC2)cc1 | inconclusive: 0.731 µM [falling, full curve, poor fit] | –
30 | Cc1ccc(S(=O)(=O)N2CCCC(C(=O)N3CCN(c4ccccc4)CC3)C2)cc1 (configuration not stated) | inconclusive: 9.2 µM [falling, partial curve, poor fit] | –
31 | COc1ccccc1NC(=O)C(C)Sc1nc2ccccc2c(=O)n1CC1CCCO1 (configuration not stated) | inconclusive: 13 µM [falling, partial curve, poor fit] | –
32 | CC(c1n[nH]c(=S)n1-c1ccc(Cl)cc1)N(C)C (configuration not stated) | inconclusive: 4.11 µM [activator, single point] | –
33 | Cc1ccc(S(=O)(=O)N/N=C2/CC(c3ccccc3)Oc3ccccc32)cc1[N+](=O)[O-] (configuration not stated) | inconclusive: 29.1 µM [falling, single point] | –
34 | Cc1cccc(NC(=S)N=Nc2c(O)n(C)c3ccc(S(=O)(=O)N4CCOCC4)cc23)c1 | inconclusive: 20.6 µM [falling, single point] | –
35 | CCc1ccc(NC(=S)N(Cc2ccccc2)Cc2ccccn2)cc1 | inconclusive: 18.4 µM [falling, single point] | –
36 | O=C(CN1CCN(C(=O)C2CCN(C(=O)/C=C/c3ccccc3)CC2)CC1)Nc1ccccc1Cl | inconclusive: 16.4 µM [falling, partial curve, poor fit] | –
37 | Cc1cc(C(=O)COc2nncc3ccccc23)c(C)n1C | inconclusive: 23.1 µM [activator, single point] | –

Single records, as listed above.
CN(Cc1nc(Cc2ccccc2F)no1)Cc1cccc2ncccc12 is entered as Potency: active: 18.4 µM
Cc1cccc(NC(=S)N=Nc2c(O)n(C)c3ccc(S(=O)(=O)N4CCOCC4)cc23)c1 is entered as Potency: inconclusive: 20.6 µM [falling, single point]
Cc1cc(C(=O)COc2nncc3ccccc23)c(C)n1C is entered as Potency: inconclusive: 23.1 µM [activator, single point]
